Paper PMC5608947
These are yes or no findings as the source states them, for the method shown. Binding seen in cells or lysates may run through a third protein. Some entries that bind do so weakly or less than the wild type. Sequences can lack the tags named with a protein.

Target: CtBP1 (C-terminal binding protein 1), mouse, full length, HA-tagged and Flag-tagged copies (mouse) (UniProt O88712)
Experiment: co-IP; competition: 50 µM synthetic CtBP peptide added to the COS7 lysate holding CtBP1-HA and CtBP1-Flag, with 10 mM lactate + 10 µM NADH, 37 °C, 20 min; IP with anti-Flag, blot with anti-HA; only the binder purified

binding: binds
Binder: GRKKRRQRRRCVEETADSTLCHILNLYRRTTWLHQALREG [CtBP peptide (Tat sequence fused to amino acids 114-142 of the long form of mouse CtBP1)]
